Assay results as given in PMC5700522.

Experiments:
Test in all cases: EMSA
[1] = target: T1, PoxNsdD335-494 (Penicillium oxalicum HP7-1) (UniProt A0A2H4WUZ6); details: 20 mM Tris-HCl pH 8.0, 50 mM KCl, 5% glycerol, 1 mM DTT, 0.1 mg/mL BSA, 40 ng FAM probe, 0-4.8 ug protein, 4% PAGE in TAE, temperature not stated, recombinant protein, residues 335-494, protein details: TRX-His-S (pET-32a(+)), label: FAM on reverse primer, probe letters rebuilt from the primers and the genome
T1 sequence (looked up): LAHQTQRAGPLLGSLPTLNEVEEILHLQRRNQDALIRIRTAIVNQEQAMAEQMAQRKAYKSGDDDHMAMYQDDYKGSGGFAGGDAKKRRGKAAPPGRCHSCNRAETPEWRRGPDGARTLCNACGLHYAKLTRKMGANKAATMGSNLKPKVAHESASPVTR

[2] = target: T2, PoxCxrA17-150 (Penicillium oxalicum HP7-1) (UniProt A0A2H4WV05); details: unlabelled probe competes; 20 mM Tris-HCl pH 8.0, 50 mM KCl, 5% glycerol, 1 mM DTT, 0.1 mg/mL BSA; 40 ng FAM probe, 0-4.8 ug protein; 4% PAGE in TAE; temperature not stated; recombinant protein; residues 17-150; protein details: TRX-His-S (pET-32a(+)); label: FAM on reverse primer; probe letters rebuilt from the primers and the genome
T2 sequence (looked up): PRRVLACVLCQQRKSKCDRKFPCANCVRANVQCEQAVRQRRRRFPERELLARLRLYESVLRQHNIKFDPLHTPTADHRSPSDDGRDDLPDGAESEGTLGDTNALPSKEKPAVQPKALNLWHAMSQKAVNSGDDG

[3] = target: T3, PoxCxrB181-330 (Penicillium oxalicum HP7-1) (UniProt A0A2H4WUZ7); details: 20 mM Tris-HCl pH 8.0, 50 mM KCl, 5% glycerol, 1 mM DTT, 0.1 mg/mL BSA, 40 ng FAM probe, 0-4.8 ug protein, 4% PAGE in TAE, temperature not stated, recombinant protein, protein details: TRX-His-S (pET-32a(+)), label: FAM on reverse primer, probe letters rebuilt from the primers and the genome
T3 sequence (looked up, limits assumed): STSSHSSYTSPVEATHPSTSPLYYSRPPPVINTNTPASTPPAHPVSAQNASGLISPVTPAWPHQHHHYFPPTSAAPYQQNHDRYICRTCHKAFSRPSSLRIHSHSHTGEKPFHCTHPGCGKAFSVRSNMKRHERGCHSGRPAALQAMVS

Q: Does “GGATTCAAACGGTAAAAATGGAGACGAGGCGTCCAGTCAGTCCGACCTGCTGAATCCCCAACTGATCGTGCGGTTTTCCTTCTCGGGAAGTCGACGATCCTTGCCGTTTCTCTGGTGTGGTCTCCACATCTTCTGCGTGTTTCTCCCCGCAAGAAAGGCAATTACAGGTGAGGAGTCCAAGGTCAGGGTTCAGTTCCTGACATCAAAAAAGGAAATTACGTGCAATAGCAATCAATTCCCCCCACACCCCCCACCAGACTGACTAGATGATCAGTACCCCTTTCATCGCTTTAAATACAGCTCCGTCTCTCCTCTGCTCTCTCAGAAGGACTAATCTTTTTTCAGGCCCTTCAGCGCAGAGTTGTGTCCCAGCTTCGCCTTTTGCAGAACAACCAAGGGCTGTGGACGAATCCATCCTGTTCAGTCGTCCTTTGACTTTCGAGGAATTGCCATTGAACAAGCGTCCGTTCATCTG (double strand) [POX06835/Bgl3A promoter (NsdD probe)]” bind ([1]; unlabelled probe competes)?
A: Result: binds

Q: Does “CCTCGGTCCGCATTTGGCAATTGTCCGTGTACAAGCTTTTCGGGTTCCACATCCGTGGCGGGTGACCCGAGGGTTTGATGCTTGGAGAGGTATTTTCGGCTCTTCAGGACACGCAGGAGGCCCATCACTCCCTGGATCGTATGGAGTTTGATGGACAGGTGAGATGAGATGGAAGCCCTGCAGAAGCCCGGTGGGGGACCCCACCTTTCAGGGTTCTTTAGGCTGTTTCAGAGGCCACAGAAGGGACAGGATCAATGATCTTAGTAAGATTGATGGCGGTTTTCTTGTTTCGACTGCTGTTTCAAAGACAGACATGCAGGCATTCGGGTTAATGGGCTCAATTTAAGGCTATTTGCTTGTCCCGATCGTGTAAGCACTAGCCAAGGGCTTAGCAGTGAAGGCCAAGAAAATCAGCATATAAGATGGGTTTGGTCTCGATGTTCTGATGTGTCTCAGGCATATACGACTGTTTTTGTTTTTTTGGTTCAGAGCTCAGACTACTCGACACATTCGAACCACATCGTTCCTTTGAATAAAACA (double strand) [POX06783/Xyn11A promoter]” bind ([1]; unlabelled probe competes)?
A: Result: binds

Q: Does “CCTCGGTCCGCATTTGGCAATTGTCCGTGTACAAGCTTTTCGGGTTCCACATCCGTGGCGGGTGACCCGAGGGTTTGATGCTTGGAGAGGTATTTTCGGCTCTTCAGGACACGCAGGAGGCCCATCACTCCCTGGATCGTATGGAGTTTGATGGACAGGTGAGATGAGATGGAAGCCCTGCAGAAGCCCGGTGGGGGACCCCACCTTTCAGGGTTCTTTAGGCTGTTTCAGAGGCCACAGAAGGGACAGGATCAATGATCTTAGTAAGATTGATGGCGGTTTTCTTGTTTCGACTGCTGTTTCAAAGACAGACATGCAGGCATTCGGGTTAATGGGCTCAATTTAAGGCTATTTGCTTGTCCCGATCGTGTAAGCACTAGCCAAGGGCTTAGCAGTGAAGGCCAAGAAAATCAGCATATAAGATGGGTTTGGTCTCGATGTTCTGATGTGTCTCAGGCATATACGACTGTTTTTGTTTTTTTGGTTCAGAGCTCAGACTACTCGACACATTCGAACCACATCGTTCCTTTGAATAAAACA (double strand) [POX06783/Xyn11A promoter]” bind [2]?
A: Result: binds

Q: Does “CCTCGGTCCGCATTTGGCAATTGTCCGTGTACAAGCTTTTCGGGTTCCACATCCGTGGCGGGTGACCCGAGGGTTTGATGCTTGGAGAGGTATTTTCGGCTCTTCAGGACACGCAGGAGGCCCATCACTCCCTGGATCGTATGGAGTTTGATGGACAGGTGAGATGAGATGGAAGCCCTGCAGAAGCCCGGTGGGGGACCCCACCTTTCAGGGTTCTTTAGGCTGTTTCAGAGGCCACAGAAGGGACAGGATCAATGATCTTAGTAAGATTGATGGCGGTTTTCTTGTTTCGACTGCTGTTTCAAAGACAGACATGCAGGCATTCGGGTTAATGGGCTCAATTTAAGGCTATTTGCTTGTCCCGATCGTGTAAGCACTAGCCAAGGGCTTAGCAGTGAAGGCCAAGAAAATCAGCATATAAGATGGGTTTGGTCTCGATGTTCTGATGTGTCTCAGGCATATACGACTGTTTTTGTTTTTTTGGTTCAGAGCTCAGACTACTCGACACATTCGAACCACATCGTTCCTTTGAATAAAACA (double strand) [POX06783/Xyn11A promoter]” bind ([3]; unlabelled probe competes)?
A: Result: binds

Q: What does the source list for “TGGCAGACGCAGTCACGCTAGTGAGGATTCAAAAGCACGTGTGACTTATTCAGCGATGCAACTTCCGGCTTCACCCTCGGCCGGGGTCCCATTTCCGTGTCTAATGCAGCCATTTGCGACTCTTCAGTGCTCGATCTGACCATTTGACCCCAGTGGCGCTGCAGAATAGGTCTGTGCTTGACCTGATACATGGACCCACGCTCAAGTTCATGTCTGCAGAATTCTCCTGAATGGATGAGGATCTGCTCGGTTGAATCTCCGGTCAGAAACCGGACAGAGGCACAGTTGCTGTGGAGTCTCTTGGCCGGTTAGGAGTGCTATAAGATGGCGACAGAAGTCGGCCGAGGAGGAAATTCTCGTTTCCATCCACCGAGTCTGCATACATTGGATTTCGAGTTGTCAAAATGAGATACGATTTGATTCTTGCCGCCGGCGCCACTCTGGCACTGGCCGTGCCCCAGGGCATCTCCAAGCGGGCCGGAGGCTTTGTCTGTAAGTTG (double strand) [POX01166/Cel5B promoter (CxrB and NsdD probe)]”?
A: binding result ([1]; unlabelled probe competes): binds; binding result ([3]; unlabelled probe competes): binds

Q: What does the source list for “AGGTTCAAGTTGGCTTACCAGCTGTACCATTGACTATCAATCATCTGCTCGGATGCACTACGATATACGGTACCGCTACTTTGGGCTCCAGTGCTACTACGACGAGGCCAAATACACATGGGTAGGATTCAAACGGTAAAAATGGAGACGAGGCGTCCAGTCAGTCCGACCTGCTGAATCCCCAACTGATCGTGCGGTTTTCCTTCTCGGGAAGTCGACGATCCTTGCCGTTTCTCTGGTGTGGTCTCCACATCTTCTGCGTGTTTCTCCCCGCAAGAAAGGCAATTACAGGTGAGGAGTCCAAGGTCAGGGTTCAGTTCCTGACATCAAAAAAGGAAATTACGTGCAATAGCAATCAATTCCCCCCACACCCCCCACCAGACTGACTAGATGATCAGTACCCCTTTCATCGCTTTAAATACAGCTCCGTCTCTCCTCTGCTCTCTCAGAAGGACTAATCTTTTTTCAGGCCCTTCAGCGCAGAGTTGTGTCCCAGCTTCGCCTTTTGCAGAACAACCAAGGGCTGTGGACGAATCCATCCTGTTCAGTCGTCCTTTGACTTTCGAGGAATTGCCATTGAACAAGCGTCCGTTCATCTG (double strand) [POX06835/Bgl3A promoter (CxrA and CxrB probe)]”?
A: binding result [2]: binds; binding result ([3]; unlabelled probe competes): binds

Q: Does “CGGTCACATTTGCTCTTGCGTTGCTGACACAACACGCATGCCAGCACGCGTCGGGGCTTGACGGTGGTGGCGGTCGGATCGGATGTAGAGATCGGCGTGGTCATGGCCGACGACTTGAGAAACTATTGATCCAGTTGCAAGTGATTAAGTGATTGACTACGGGATAGAAGAGTTGCTCCTGAGTCCGAGTGCCCGAAGCCCGAGGATTTTGGGCGGAAAAAAAAAGGAAAGAAAGGAAGAAAGAATGAATGAAAGGGCAAGTGTACCATAGAGTGTGGGGGCGGGGGGACAGGCGGGTTTTAGAA (double strand) [PoxCxrA promoter (CxrB probe)]” bind [3]?
A: Result: binds

Q: Does “CGGTCACATTTGCTCTTGCGTTGCTGACACAACACGCATGCCAGCACGCGTCGGGGCTTGACGGTGGTGGCGGTCGGATCGGATGTAGAGATCGGCGTGGTCATGGCCGACGACTTGAGAAACTATTGATCCAGTTGCAAGTGATTAAGTGATTGACTACGGGATAGAAGAGTTGCTCCTGAGTCCGAGTGCCCGAAGCCCGAGGATTTTGGGCGGAAAAAAAAAGGAAAGAAAGGAAGAAAGAATGAATGAAAGGGCAAGTGTACCATAGAGTGTGGGGGCGGGGGGACAGGCGGGTTTTAGAAAGACCGACGAACCACGTTTGCATCCTGGTACTCGCACTTTCTAACCCCCGATCACTGCAGTCGCGAACTTGCTAATCCCCGGCTGGATGGCCAGCTTCTTCGATATGCTGCTACACAGTGCGAGATCGTCCAGCCATGTTTGCCCTCCCGATAGGCCCCTTTATAAGCCAGAGCTTTCCTCCTGATCTCCCCTGGGTTAAAAAAGGACTTTCCTTGTGCATTGGTGACCGATCGATAGCTGCTTGAGCTGTGCCGCCCTGTATTTCCACAATGCCTTCATCACGCA (double strand) [PoxCxrA promoter (NsdD probe)]” bind [1]?
A: Result: binds

Tags and fusion partners may be left off the protein sequences shown.
